Patent US8026262B2, “Chemical compounds” (GlaxoSmithKline LLC, priority 2006, dated 2011)
Some of these results come from one statement about several compounds together.

Assays:
human AR = molecular target: T1, human AR (Homo sapiens, UniProt P10275); assay: AR functional assay (agonist mode), MMTV luciferase reporter in transfected CV-1 cells; assay type: cell-based; conditions: CV-1 cells transfected with human AR and MMTV luciferase, values said to be exemplary only
T1 sequence (P10275 560-920 limits assumed): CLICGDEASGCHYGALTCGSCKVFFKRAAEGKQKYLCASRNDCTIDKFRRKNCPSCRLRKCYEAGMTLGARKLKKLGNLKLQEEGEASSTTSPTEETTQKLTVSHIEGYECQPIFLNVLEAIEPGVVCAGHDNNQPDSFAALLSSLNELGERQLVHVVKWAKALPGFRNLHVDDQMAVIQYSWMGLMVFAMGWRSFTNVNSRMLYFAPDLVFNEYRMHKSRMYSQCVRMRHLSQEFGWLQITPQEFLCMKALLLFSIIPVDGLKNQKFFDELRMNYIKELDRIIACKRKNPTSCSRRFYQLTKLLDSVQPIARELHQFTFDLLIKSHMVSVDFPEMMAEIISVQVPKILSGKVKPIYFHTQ

androgen receptor = molecular target: T2, androgen receptor (Rattus norvegicus, UniProt P15207); assay: Castrated male rat model (ORX rat); assay type: in vivo; conditions: castrated male rats
T2 construct: from tissue; host or cells: live castrated male Sprague-Dawley rats; levator ani, bulbocavernosus, ventral prostate, seminal vesicles
T2 sequence (P15207 1-902): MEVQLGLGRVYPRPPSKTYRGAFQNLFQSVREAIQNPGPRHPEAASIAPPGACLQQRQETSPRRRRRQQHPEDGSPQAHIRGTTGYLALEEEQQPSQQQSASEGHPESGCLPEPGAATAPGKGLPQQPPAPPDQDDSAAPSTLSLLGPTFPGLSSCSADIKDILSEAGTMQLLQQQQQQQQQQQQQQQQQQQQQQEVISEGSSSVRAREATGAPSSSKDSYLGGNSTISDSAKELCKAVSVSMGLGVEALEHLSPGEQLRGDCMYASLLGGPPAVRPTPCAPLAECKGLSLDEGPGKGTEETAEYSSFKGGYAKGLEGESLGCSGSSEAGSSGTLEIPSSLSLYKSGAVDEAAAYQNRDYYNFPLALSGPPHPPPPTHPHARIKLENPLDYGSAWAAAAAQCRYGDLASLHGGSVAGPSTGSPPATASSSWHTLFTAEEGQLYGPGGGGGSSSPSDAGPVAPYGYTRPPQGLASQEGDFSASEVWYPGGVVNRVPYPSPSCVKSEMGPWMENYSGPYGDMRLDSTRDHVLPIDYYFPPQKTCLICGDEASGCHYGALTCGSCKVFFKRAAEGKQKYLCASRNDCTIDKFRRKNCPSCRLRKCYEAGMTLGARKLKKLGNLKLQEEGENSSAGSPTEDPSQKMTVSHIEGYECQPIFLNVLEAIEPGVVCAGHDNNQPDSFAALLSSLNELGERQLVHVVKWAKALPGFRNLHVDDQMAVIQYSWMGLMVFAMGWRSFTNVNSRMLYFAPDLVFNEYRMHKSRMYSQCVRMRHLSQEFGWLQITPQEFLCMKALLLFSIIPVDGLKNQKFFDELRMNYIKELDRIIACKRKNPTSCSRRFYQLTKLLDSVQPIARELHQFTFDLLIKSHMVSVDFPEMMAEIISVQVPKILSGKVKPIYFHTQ

Cc1cc2c(C(F)(F)F)c(C#N)ccc2n1Cc1noc(-c2cc(C(F)(F)F)cc(C(F)(F)F)c2)n1 [Example 127, 1-({5-[3,5-Bis(trifluoromethyl)phenyl]-1,2,4-oxadiazol-3-yl}methyl)-2-methyl-4-(trifluoromethyl)-1H-indole-5-carbonitrile]
pIC50 in the agonist mode of the AR functional assay (human AR): ≥ 5.01
prostate sparing (ratio of levator ani ED50 to prostate ED50) (androgen receptor; ED50 = 50% of the maximum response above the vehicle treated castrate level): spared the prostate (at least a 2:1 ratio of levator ani ED50 to prostate ED50)
levator ani hypertrophy (levator ani weight) (androgen receptor; compared to vehicle-treated castrates, dosed orally at up to 10 mg/kg/day): favorable levator anti-hypertrophy (show a 30% or greater increase in levator ani weight when compared to vehicle-treated castrates and dosed orally at up to 10 mg/kg/day)
